From publication PMC7444511
Results are given in words; binding and its absence hold for the method and conditions named. For some assays here: Where a sequence is shown, tags or fusion partners need not be part of it.

T1: GCSF-R (extracellular domain fused to the Fc region of human IgG1) (UniProt Q99062)
T1 sequence: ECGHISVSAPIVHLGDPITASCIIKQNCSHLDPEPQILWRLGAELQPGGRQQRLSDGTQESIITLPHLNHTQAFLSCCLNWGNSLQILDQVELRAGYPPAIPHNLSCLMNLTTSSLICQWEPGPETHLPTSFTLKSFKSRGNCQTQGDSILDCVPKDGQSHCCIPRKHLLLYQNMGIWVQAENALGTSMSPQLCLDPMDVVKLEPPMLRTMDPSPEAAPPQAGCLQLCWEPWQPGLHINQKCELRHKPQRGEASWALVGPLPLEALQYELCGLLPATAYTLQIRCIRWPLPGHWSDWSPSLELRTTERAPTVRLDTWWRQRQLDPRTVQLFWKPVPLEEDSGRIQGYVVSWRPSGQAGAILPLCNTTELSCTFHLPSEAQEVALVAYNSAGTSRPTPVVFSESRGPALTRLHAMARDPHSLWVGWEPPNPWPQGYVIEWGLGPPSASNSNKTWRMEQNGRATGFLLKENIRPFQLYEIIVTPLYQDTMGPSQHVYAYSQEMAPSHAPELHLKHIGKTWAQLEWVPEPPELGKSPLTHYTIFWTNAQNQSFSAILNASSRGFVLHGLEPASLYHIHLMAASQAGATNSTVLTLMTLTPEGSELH

T2: G-CSF monomer (human), P09919
T2 chain: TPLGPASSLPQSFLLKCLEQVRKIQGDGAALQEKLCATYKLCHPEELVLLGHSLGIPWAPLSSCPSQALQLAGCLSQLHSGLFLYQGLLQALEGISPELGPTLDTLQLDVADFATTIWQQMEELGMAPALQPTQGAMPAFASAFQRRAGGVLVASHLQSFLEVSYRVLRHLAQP


How the values were obtained:
[1] = molecular target: T1, GCSF-R (extracellular domain fused to the Fc region of human IgG1); test: total internal reflection ellipsometry (TIRE); receptor-Fc held by its Fc region on protein G immobilised covalently on an 11-MUA monolayer on gold; 10 µg/mL of each protein in PBS pH 7.4; standard fully reversible Langmuir kinetics model; both purified
[2] = molecular target: T2, G-CSF monomer (human), P09919; test: SEC; calibrated SE-HPLC, TSK-gel G3000 SWXL, 0.1 M Na2HPO4, 0.1 M Na2SO4 pH 7.2, 0.6 mL/min, 22 °C; 10 µg of each protein loaded; both purified; conditions: remark: other sources report otherwise

binding [1] | binding [2] | Molecule
no binding (tested: 10 µg/mL) | – | GCSF-Lα-SCF (from UniProt P09919-2 31-204; P21583 26-190)
– | no binding | G-CSF monomer, P09919-2 31-204 (ligand) TPLGPASSLPQSFLLKCLEQVRKIQGDGAALQEKLCATYKLCHPEELVLLGHSLGIPWAPLSSCPSQALQLAGCLSQLHSGLFLYQGLLQALEGISPELGPTLDTLQLDVADFATTIWQQMEELGMAPALQPTQGAMPAFASAFQRRAGGVLVASHLQSFLEVSYRVLRHLAQP
